Experiment: GIT 27 Release Experiment (shunt coating, nanodrop absorbance)
Assay type: physicochemical
Description: GIT 27 Release Experiment: GIT 27 attachment to the surface of a shunt was completed using techniques similar to those described in previous work (Harris et al., J Biomed Mater Res-Part A. 98 A:425-33, 2011). Briefly, ventricular shunts (Medtronic 27600) were cut into 1.5 cm segments and placed in the plasma etcher. Immediately after finishing the etching cycle, the samples were submerged in a solution made up of 2.5 mg/mL N-hydroxysuccinimide (NHS), 2.5 mg/mL 1-Ethyl-3-(3-dimethylaminopropyl) carbodiimide (EDC), and GIT 27 at either a 5, 50, and 1000 μg/mL concentration. Samples were left to incubate for 24 hours and then washed with 0.9% (w/v) saline solution. […]
At days 7, 14, 21, and 28, absorbance values were measured using the same methods as described in previous work (Al-Saloum et al., J Biomed Mater Res-Part B Appl Biomater. 109:1177-1187, 2021). Briefly, 2 μL of solution were placed on the nanodrop machine and measured using the a280 nanodrop setting on the Nano-Drop 2000 program. Absorbance values were recorded and compared to a standard curve made up of 7 concentrations evenly distributed between 0 and 1000 mg/mL of the GIT 27 in saline solution. The equation obtained from the standardized curve was y=18.7x+0.131, where y is the concentration of GIT 27 in the saline solution and x is the absorbance value.

## O=C(O)CC1CC(c2ccccc2)=NO1 (centres unmarked) [GIT 27, 4,5-Dihydro-3-phenyl-5-isoxazoleacetic acid]
Coating solution 1000 μg/mL, four-week incubation in saline, 37° C.
  release of GIT 27 physiosorbed to the catheter surface: partially released
Plasma etching, NHS/EDC solution
  minimum concentration necessary to attach GIT 27 to the surface of the PDMS to display any attachment and release from the catheter: 1000 µg/mL

— patent US20240374879A1, “METHODS AND COMPOSITIONS TO REDUCE CELLULAR DEPOSITION, AND HYDROCEPHALUS SHUNT FAILURE” (Wayne State University, priority 2021, published 2024)
